Consider 1 molecule from PMC3477016, “The intrinsic GTPase activity of the Gtr1 protein from Saccharomyces cerevisiae” (BMC Biochemistry, 2012).

These are yes or no findings as the source states them, for the method shown. Tags and fused reporters may be left off the sequences shown.

For the experiment, the target named is His6-Gtr1 wild-type protein (S. cerevisiae full-length Gtr1) (S. cerevisiae) (UniProt Q00582). Nature of the experiment: native gel or EMSA; native gel electrophoresis of the purified recombinant His6-Gtr1; the protein migrates at 36 kDa; both purified.

B1: His6-Gtr1 wild-type protein (S. cerevisiae full-length Gtr1) (protein, UniProt Q00582 1-310)
chain: MSSNNRKKLLLMGRSGSGKSSMRSIIFSNYSAFDTRRLGATIDVEHSHLRFLGNMTLNLWDCGGQDVFMENYFTKQKDHIFQMVQVLIHVFDVESTEVLKDIEIFAKALKQLRKYSPDAKIFVLLHKMDLVQLDKREELFQIMMKNLSETSSEFGFPNLIGFPTSIWDESLYKAWSQIVCSLIPNMSNHQSNLKKFKEIMNALEIILFERTTFLVICSSNGENSNENHDSSDNNNVLLDPKRFEKISNIMKNFKQSCTKLKSGFKTLILNNNIYVSELSSNMVCFIVLKDMNIPQELVLENIKKAKEFFQ
Take B1: the binding result is “no binding”.
